Assay results published in PMC6873818.
No constants are given. Whether binding was seen depends on the method and setting. Some binding calls cover weakened binding; strength is not graded here.

Chains of the proteins cited; added tags and fusions are not shown.
UniProt Q9NRL2: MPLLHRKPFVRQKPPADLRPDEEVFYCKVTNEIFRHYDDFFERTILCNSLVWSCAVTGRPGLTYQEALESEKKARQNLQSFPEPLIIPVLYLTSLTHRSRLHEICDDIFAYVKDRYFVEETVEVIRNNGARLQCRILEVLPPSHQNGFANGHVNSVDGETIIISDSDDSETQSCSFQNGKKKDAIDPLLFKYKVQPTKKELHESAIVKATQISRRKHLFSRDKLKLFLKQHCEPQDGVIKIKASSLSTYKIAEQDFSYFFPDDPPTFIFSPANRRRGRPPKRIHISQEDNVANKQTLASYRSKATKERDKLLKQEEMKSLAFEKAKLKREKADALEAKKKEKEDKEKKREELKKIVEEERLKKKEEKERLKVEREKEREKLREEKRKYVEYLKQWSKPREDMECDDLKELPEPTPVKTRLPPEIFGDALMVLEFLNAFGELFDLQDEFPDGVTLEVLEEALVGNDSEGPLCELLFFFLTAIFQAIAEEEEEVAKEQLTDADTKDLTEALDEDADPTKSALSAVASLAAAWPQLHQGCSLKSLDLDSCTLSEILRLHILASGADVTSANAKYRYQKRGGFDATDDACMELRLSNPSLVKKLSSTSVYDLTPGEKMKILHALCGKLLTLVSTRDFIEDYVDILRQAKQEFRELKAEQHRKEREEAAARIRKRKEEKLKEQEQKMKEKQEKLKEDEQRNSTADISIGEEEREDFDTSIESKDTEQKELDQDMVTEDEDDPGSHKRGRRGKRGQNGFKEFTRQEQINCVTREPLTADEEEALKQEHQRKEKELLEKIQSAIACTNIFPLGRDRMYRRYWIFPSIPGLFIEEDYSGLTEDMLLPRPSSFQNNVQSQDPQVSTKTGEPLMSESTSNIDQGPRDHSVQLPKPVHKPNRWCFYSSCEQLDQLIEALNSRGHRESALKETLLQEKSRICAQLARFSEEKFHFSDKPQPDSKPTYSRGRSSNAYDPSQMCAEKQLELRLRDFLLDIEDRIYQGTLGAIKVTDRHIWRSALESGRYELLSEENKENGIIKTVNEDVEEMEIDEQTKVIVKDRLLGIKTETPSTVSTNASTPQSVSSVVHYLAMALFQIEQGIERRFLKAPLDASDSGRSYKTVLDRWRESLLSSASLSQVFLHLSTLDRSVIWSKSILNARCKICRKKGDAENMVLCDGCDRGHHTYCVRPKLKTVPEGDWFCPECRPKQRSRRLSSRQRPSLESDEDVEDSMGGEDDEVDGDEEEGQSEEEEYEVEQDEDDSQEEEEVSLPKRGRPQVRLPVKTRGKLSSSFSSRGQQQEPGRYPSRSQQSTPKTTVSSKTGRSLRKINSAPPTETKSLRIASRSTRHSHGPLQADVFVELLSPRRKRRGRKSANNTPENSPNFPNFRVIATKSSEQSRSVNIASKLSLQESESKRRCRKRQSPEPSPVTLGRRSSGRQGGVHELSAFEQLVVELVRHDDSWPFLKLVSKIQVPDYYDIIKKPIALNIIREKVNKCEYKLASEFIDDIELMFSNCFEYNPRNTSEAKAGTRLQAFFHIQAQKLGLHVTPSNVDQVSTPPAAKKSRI
UniProt Q71RC2: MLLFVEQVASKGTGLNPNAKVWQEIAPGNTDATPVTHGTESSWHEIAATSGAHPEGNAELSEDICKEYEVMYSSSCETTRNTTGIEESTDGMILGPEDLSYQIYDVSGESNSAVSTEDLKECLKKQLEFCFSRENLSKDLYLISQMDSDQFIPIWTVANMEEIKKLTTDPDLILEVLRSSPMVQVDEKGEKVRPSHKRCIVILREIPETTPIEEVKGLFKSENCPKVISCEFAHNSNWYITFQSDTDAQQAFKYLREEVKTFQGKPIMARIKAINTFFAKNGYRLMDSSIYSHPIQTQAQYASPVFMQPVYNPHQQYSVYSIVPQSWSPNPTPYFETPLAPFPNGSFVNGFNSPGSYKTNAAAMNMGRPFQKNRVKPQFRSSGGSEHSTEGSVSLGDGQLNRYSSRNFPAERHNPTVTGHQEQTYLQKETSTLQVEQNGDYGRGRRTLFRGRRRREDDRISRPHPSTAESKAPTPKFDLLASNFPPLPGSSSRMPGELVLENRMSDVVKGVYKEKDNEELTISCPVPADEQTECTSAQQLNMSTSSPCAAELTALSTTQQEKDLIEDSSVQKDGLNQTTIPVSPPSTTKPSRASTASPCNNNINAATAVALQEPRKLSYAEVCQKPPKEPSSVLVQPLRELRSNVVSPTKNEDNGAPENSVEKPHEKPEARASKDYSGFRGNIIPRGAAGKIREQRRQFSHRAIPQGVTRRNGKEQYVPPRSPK
UniProt O60264: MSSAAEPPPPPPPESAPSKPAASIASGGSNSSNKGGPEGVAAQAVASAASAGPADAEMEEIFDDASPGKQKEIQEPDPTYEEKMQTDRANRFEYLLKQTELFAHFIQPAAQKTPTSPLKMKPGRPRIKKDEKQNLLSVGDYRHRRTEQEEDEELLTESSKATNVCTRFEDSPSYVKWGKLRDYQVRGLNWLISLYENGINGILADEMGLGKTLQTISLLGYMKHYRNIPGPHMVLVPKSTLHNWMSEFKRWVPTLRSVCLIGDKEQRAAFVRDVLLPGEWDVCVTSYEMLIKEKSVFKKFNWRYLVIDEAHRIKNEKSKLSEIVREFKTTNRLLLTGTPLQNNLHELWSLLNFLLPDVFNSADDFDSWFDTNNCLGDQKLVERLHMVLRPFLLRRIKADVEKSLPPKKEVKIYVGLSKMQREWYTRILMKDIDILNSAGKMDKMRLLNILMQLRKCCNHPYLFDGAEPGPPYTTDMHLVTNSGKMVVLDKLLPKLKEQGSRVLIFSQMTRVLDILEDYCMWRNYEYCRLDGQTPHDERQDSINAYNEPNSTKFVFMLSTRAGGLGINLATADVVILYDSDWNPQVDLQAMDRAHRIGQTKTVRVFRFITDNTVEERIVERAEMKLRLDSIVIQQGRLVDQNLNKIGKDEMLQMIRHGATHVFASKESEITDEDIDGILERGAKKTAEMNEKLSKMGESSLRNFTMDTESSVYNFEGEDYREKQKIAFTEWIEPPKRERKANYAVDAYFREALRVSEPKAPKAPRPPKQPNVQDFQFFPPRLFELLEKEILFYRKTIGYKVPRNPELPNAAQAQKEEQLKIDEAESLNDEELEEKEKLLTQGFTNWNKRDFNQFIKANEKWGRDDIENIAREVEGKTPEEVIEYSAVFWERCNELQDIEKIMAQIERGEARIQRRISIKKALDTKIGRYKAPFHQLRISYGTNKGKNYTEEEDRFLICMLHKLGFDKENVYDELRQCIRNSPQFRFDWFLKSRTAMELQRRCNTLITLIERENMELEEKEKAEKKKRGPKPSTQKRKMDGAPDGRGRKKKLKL
UniProt Q92615: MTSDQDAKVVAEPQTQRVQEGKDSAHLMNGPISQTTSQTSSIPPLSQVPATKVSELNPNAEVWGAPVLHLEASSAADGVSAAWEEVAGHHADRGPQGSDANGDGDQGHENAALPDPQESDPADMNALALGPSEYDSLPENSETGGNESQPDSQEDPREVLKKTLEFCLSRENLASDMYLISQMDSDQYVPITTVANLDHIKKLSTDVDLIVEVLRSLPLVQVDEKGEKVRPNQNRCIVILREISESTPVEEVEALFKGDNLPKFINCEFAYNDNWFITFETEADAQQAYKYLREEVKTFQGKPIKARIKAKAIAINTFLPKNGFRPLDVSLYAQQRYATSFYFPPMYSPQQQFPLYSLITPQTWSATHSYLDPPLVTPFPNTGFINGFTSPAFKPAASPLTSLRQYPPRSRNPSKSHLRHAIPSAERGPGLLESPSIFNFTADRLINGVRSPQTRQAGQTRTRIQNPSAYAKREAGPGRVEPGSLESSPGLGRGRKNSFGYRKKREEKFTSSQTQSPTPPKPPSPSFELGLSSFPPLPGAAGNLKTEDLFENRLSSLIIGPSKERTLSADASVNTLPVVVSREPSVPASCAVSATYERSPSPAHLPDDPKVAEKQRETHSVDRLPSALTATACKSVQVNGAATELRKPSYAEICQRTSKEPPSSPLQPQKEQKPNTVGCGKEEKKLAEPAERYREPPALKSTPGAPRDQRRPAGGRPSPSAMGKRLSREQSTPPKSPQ

What was measured:
[1] = molecular target: BAZ1A (human (endogenous in HEK293T)) (UniProt Q9NRL2); test: SEC; DIF-FRAC control sample (co-fractionation mass spectrometry): clarified HEK293T lysate without RNase A, native SEC on BioSep-SEC-s4000 in PBS pH 7.2, 50 fractions, proteins of each fraction identified by LC-MS/MS; co-elution of elution profiles
[2] = molecular target: LARP4 (human (endogenous in HEK293T)) (UniProt Q71RC2); test: as above
[3] = molecular target: LARP4 (human (endogenous in HEK293T)) (UniProt Q71RC2); test: SEC; DIF-FRAC RNase A-treated sample (co-fractionation mass spectrometry): clarified HEK293T lysate with RNase A (80 ug, 30 min, room temperature), native SEC on BioSep-SEC-s4000 in PBS pH 7.2, 50 fractions, proteins of each fraction identified by LC-MS/MS; co-elution of elution profiles
[4] = molecular target: T1, FLII (human (endogenous in HEK293T)) (UniProt Q13045); test: as above
T1 sequence: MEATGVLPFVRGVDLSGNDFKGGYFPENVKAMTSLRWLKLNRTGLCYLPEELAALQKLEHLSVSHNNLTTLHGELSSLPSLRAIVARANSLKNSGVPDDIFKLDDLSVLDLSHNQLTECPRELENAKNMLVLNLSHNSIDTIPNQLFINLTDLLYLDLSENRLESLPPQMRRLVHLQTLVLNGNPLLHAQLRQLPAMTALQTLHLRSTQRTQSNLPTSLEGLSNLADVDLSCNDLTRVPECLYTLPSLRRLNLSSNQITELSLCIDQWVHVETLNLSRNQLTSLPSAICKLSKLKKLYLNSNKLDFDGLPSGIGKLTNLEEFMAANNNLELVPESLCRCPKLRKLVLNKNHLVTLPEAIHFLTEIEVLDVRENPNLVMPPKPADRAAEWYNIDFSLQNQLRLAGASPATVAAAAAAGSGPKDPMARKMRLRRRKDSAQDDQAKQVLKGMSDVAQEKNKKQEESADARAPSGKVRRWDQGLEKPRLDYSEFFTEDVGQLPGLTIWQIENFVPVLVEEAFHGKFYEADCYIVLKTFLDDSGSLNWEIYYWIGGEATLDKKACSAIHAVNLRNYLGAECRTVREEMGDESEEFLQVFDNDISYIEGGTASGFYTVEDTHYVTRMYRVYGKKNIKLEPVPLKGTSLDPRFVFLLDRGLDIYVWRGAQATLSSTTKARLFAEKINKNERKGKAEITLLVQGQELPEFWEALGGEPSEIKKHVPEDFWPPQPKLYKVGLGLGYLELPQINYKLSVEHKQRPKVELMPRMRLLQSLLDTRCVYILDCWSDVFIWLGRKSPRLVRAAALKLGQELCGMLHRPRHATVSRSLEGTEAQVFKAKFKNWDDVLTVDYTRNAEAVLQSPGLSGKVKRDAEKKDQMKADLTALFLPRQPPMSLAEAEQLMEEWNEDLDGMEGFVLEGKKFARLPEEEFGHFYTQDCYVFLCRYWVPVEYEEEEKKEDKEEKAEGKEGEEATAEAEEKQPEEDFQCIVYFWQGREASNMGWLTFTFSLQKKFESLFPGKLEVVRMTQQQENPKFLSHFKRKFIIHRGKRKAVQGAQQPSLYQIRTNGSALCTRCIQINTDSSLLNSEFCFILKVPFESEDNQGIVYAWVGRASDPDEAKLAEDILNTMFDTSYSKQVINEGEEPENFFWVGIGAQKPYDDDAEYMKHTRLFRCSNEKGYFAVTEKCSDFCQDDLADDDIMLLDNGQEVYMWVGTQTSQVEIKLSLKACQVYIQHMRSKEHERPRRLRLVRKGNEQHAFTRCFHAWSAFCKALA

[5] = molecular target: T1, FLII (human (endogenous in HEK293T)); test: SEC; DIF-FRAC control sample (co-fractionation mass spectrometry): clarified HEK293T lysate without RNase A, native SEC on BioSep-SEC-s4000 in PBS pH 7.2, 50 fractions, proteins of each fraction identified by LC-MS/MS; co-elution of elution profiles
[6] = molecular target: T2, SPATA5 (human (endogenous in HEK293T)) (UniProt Q8NB90); test: as above
T2 sequence: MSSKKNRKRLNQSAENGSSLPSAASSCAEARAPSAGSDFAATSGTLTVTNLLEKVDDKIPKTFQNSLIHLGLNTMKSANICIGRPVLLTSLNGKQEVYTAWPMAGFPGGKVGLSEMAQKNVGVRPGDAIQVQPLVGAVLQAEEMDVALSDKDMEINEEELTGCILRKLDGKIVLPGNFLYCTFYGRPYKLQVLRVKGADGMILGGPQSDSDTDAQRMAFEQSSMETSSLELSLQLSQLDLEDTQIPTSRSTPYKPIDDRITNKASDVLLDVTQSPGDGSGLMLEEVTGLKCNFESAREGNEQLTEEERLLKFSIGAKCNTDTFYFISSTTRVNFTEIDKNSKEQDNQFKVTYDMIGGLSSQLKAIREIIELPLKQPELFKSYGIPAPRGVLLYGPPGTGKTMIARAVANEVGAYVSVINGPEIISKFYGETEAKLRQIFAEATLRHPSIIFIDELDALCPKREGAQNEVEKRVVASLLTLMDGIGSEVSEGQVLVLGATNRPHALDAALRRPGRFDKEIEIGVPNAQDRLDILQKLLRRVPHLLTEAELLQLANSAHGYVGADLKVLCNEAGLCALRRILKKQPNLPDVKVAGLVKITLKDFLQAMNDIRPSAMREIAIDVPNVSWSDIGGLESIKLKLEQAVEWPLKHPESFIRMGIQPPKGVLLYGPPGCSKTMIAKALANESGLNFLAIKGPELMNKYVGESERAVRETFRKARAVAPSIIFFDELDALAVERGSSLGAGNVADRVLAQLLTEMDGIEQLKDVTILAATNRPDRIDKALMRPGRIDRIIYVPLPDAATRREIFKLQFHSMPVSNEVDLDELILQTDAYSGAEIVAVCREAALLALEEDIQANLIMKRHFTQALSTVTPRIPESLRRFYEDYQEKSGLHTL

[7] = molecular target: T3, SAMM50 (human (endogenous in HEK293T)) (UniProt Q9Y512); test: SEC; DIF-FRAC RNase A-treated sample (co-fractionation mass spectrometry): clarified HEK293T lysate with RNase A (80 ug, 30 min, room temperature), native SEC on BioSep-SEC-s4000 in PBS pH 7.2, 50 fractions, proteins of each fraction identified by LC-MS/MS; co-elution of elution profiles
T3 sequence: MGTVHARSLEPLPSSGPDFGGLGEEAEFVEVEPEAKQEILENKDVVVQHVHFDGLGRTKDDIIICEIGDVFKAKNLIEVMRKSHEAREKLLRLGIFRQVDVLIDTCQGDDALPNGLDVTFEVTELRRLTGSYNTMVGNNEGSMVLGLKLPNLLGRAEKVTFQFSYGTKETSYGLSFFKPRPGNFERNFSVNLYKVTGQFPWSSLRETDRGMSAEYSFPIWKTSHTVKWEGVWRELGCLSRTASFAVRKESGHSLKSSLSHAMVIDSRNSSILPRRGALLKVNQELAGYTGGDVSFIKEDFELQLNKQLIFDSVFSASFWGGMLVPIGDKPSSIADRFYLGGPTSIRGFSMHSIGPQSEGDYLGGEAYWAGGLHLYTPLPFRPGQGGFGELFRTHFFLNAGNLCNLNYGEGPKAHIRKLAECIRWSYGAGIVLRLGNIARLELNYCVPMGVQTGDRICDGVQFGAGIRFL

[8] = molecular target: T3, SAMM50 (human (endogenous in HEK293T)); test: SEC; DIF-FRAC control sample (co-fractionation mass spectrometry): clarified HEK293T lysate without RNase A, native SEC on BioSep-SEC-s4000 in PBS pH 7.2, 50 fractions, proteins of each fraction identified by LC-MS/MS; co-elution of elution profiles

For SMARCA5 (from UniProt O60264 1-1052), the binding [1] was “binds”.

For LARP4B (from UniProt Q92615 1-738), the binding [2] was “binds” and the binding [3] was “binds”.

B1: LRRFIP1 (protein, UniProt Q32MZ4 1-808)
chain: MTSPAAAQSREIDCLSPEAQKLAEARLAAKRAARAEAREIRMKELERQQKEEDSERYSRRSRRNTSASDEDERMSVGSRGSLRVEERPEKDFTEKGSRNMPGLSAATLASLGGTSSRRGSGDTSISIDTEASIREIKELNELKDQIQDVEGKYMQGLKEMKDSLAEVEEKYKKAMVSNAQLDNEKTNFMYQVDTLKDMLLELEEQLAESRRQYEEKNKEFEREKHAHSILQFQFAEVKEALKQREEMLEKHGIILNSEIATNGETSDTLNNVGYQGPTKMTKEELNALKSTGDGTLGRASEVEVKNEIVANVGKREILHNTEKEQHTEDTVKDCVDIEVFPAGENTEDQKSSEDTAPFLGTLAGATYEEQVQSQILESSSLPENTVQVESNEVMGAPDDRTRTPLEPSNCWSDLDGGNHTENVGEAAVTQVEEQAGTVASCPLGHSDDTVYHDDKCMVEVPQELETSTGHSLEKEFTNQEAAEPKEVPAHSTEVGRDHNEEEGEETGLRDEKPIKTEVPGSPAGTEGNCQEATGPSTVDTQNEPLDMKEPDEEKSDQQGEALDSSQKKTKNKKKKNKKKKSPVPVETLKDVKKELTYQNTDLSEIKEEEQVKSTDRKSAVEAQNEVTENPKQKIAAESSENVDCPENPKIKLDGKLDQEGDDVQTAAEEVLADGDTLDFEDDTVQSSGPRAGGEELDEGVAKDNAKIDGATQSSPAEPKSEDADRCTLPEHESPSQDISDACEAESTERCEMSEHPSQTVRKALDSNSLENDDLSAPGREPGHFNPESREDTRGGNEKGKSKEDCTMS
B1 was tested, and the binding [4] was “binds” and the binding [5] was “binds”.

B2: SPATA5L1 (protein, UniProt Q9BVQ7 1-753)
chain: MAPDSDPFPEGPLLKLLPLDARDRGTQRCRLGPAALHALGARLGSAVKISLPDGGSCLCTAWPRRDGADGFVQLDPLCASPGAAVGASRSRRSLSLNRLLLVPCPPLRRVAVWPVLRERAGAPGARNTAAVLEAAQELLRNRPISLGHVVVAPPGAPGLVAALHIVGGTPSPDPAGLVTPRTRVSLGGEPPSEAQPQPEVPLGGLSEAADSLRELLRLPLRYPRALTALGLAVPRGVLLAGPPGVGKTQLVRAVAREAGAELLAVSAPALQGSRPGETEENVRRVFQRARELASRGPSLLFLDEMDALCPQRGSRAPESRVVAQVLTLLDGASGDREVVVVGATNRPDALDPALRRPGRFDREVVIGTPTLKQRKEILQVITSKMPISSHVDLGLLAEMTVGYVGADLTALCREAAMHALLHSEKNQDNPVIDEIDFLEAFKNIQPSSFRSVIGLMDIKPVDWEEIGGLEDVKLKLKQSIEWPLKFPWEFVRMGLTQPKGVLLYGPPGCAKTTLVRALATSCHCSFVSVSGADLFSPFVGDSEKVLSQIFRQARASTPAILFLDEIDSILGARSASKTGCDVQERVLSVLLNELDGVGLKTIERRGSKSSQQEFQEVFNRSVMIIAATNRPDVLDTALLRPGRLDKIIYIPPPDHKGRLSILKVCTKTMPIGPDVSLENLAAETCFFSGADLRNLCTEAALLALQENGLDATTVKQEHFLKSLKTVKPSLSCKDLALYENLFKKEGFSNVEGI
For B2, the binding [6] was “binds”.

B3: MTX3 (protein, UniProt Q5HYI7 1-312)
chain: MAAPLELSCWGGGWGLPSVHSESLVVMAYAKFSGAPLKVNVIDNTWRGSRGDVPILTTEDDMVSQPAKILNFLRKQKYNADYELSAKQGADTLAYIALLEEKLLPAVLHTFWVESDNYFTVTKPWFASQIPFPLSLILPGRMSKGALNRILLTRGQPPLYHLREVEAQIYRDAKECLNLLSNRLGTSQFFFGDTPSTLDAYVFGFLAPLYKVRFPKVQLQEHLKQLSNLCRFCDDILSSYFRLSLGGISPAGQETVDANLQKLTQLVNKESNLIEKMDDNLRQSPQLPPRKLPTLKLTPAEEENNSFQRLSP
In the case of B3, the binding [7] is reported as “binds” and the binding [8] is reported as “binds”.
